Laboratory results from patent CN114316047A.
Results are given in words; binding and its absence hold for the method and conditions named. Some binding calls cover weakened binding; strength is not graded here.

Sequences of proteins named here, by UniProt entry; tags and fusion partners are left off. Residues count along the entry.
UniProt Q15116, residues 25-167: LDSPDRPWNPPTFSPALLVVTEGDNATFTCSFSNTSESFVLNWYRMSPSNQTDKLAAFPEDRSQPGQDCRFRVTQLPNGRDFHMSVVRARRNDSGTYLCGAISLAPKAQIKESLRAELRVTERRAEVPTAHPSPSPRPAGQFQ

Target: 带组氨酸标签的PD-1抗原 (UniProt Q15116)
Assay: SPR, Biacore 3000, antibody captured on Protein A CM5 chip, His-tagged PD-1 as analyte

- binding: binds
B1: hu9H8-hIgG4 (antibody, V domains shown)
VH: EVQLLESGGGLVQPGGSLRLSCAASGFTFSDYYMYWVRQAPGKGLEWVSQISNGGGNTYYPDTVKGRFTISRDNSKNTLYLQMNSLRAEDTAVYYCSKSYYKYDGWYFDVWGQGTLVTVSS
VL: DIVMTQSPDSLAVSLGERATINCRASESVEYSRTSLIQWYQQKPGQPPKLLIYAASYVESGVPDRFSGSGSGTDFTLTISSLQAEDVAVYYCQQARKVPWTFGQGTKLEIK
